# From patent publication US20240182431A1, “NEW CONTRAST AGENT FOR USE IN MAGNETIC RESONANCE IMAGING” (Bayer Aktiengesellschaft, priority 2021, published 2024)
# Some of these results come from one statement about several compounds together. At least one structure is not confirmed: it was looked up by name or label, or the drawing left a doubt.
# Assay: No-observed-adverse-effect level (NOAEL) in mice
# Conditions: intravenous bolus
compound,measurement,value
"CCOc1ccc(C[C@@H](CN(CCN(CC(=O)[O-])CC(=O)[O-])CC(=O)[O-])N(CC(=O)[O-])CC(=O)[O-])cc1.[Gd+3].[H+].[H+] [RC1, Gd-EOB-DTPA]",NOAEL,> 2.5 mmol Gd/kg bw
